Only a part is listed here, and it is no random draw. The calls were merged from several studies; some rest on single wells. Some of the results follow.
The molecules below were run on T1, OR7C2. Details: stereoisomer not certain.
T1 sequence (whole entry): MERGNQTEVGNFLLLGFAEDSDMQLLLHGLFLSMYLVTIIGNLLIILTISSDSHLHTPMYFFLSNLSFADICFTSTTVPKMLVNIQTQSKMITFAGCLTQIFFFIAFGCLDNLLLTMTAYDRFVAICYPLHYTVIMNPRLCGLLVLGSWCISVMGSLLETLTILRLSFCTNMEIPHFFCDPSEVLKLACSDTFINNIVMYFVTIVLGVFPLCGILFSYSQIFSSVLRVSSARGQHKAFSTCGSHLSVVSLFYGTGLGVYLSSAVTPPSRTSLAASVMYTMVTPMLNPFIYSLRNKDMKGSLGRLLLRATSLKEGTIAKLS
Method in brief: (§1)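 Each receptor–molecule pair is labelled responsive or non-responsive (inactive) according to whether the original authors judged the measured signal statistically different from baseline. The data were taken from the main text and supplementary material of published papers and checked for typos and inconsistencies. Assay methods differed by source, with transient luciferase assays in mammalian cell lines being common.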
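Note: active if original authors judged signal statistically different from baseline.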

Q: For `CCCCCCCOC(C)=O`, which “odorant receptor agonist call” value is on record?
A: inactive

Q: For `O=C1CCCCC1`, which “odorant receptor agonist call” value is on record?
A: inactive

Q: Which “odorant receptor agonist call” value does the source give for `CC(=O)c1ccccc1` here?
A: inactive

Q: `COC(=O)c1ccccc1O` was tested. Which “odorant receptor agonist call” value did it give?
A: inactive

Q: For `O=C1CCCCCCCCCCCC(=O)OCCO1`, which “odorant receptor agonist call” value is on record?
A: inactive

Q: With `c1cnccn1` as the molecule, how does the “odorant receptor agonist call” value read?
A: inactive

Q: `CC1=NC(C)SC1C` (stereo not drawn) was tested. Which “odorant receptor agonist call” value did it give?
A: inactive

Q: With `CC1CCC(C(C)C)C(O)C1` (stereo not drawn) as the molecule, how does the “odorant receptor agonist call” value read?
A: inactive

Q: Which “odorant receptor agonist call” value does the source give for `CCCCO` here?
A: inactive

Q: How did the “odorant receptor agonist call” value turn out when `CC(C)CC(=O)O` was run?
A: inactive

Q: `c1ccc(Oc2ccccc2)cc1` was tested. Which “odorant receptor agonist call” value did it give?
A: inactive

Q: With `CC(C)C=O` as the molecule, how does the “odorant receptor agonist call” value read?
A: inactive

Q: For `CC(=O)OCC=C(C)CCC=C(C)C`, which “odorant receptor agonist call” value is on record?
A: inactive

Q: `CCCCCC(=O)O` was tested. Which “odorant receptor agonist call” value did it give?
A: inactive

Q: For `CCCCCCCC=O`, which “odorant receptor agonist call” value is on record?
A: inactive

Q: For `CCCCCCCCCCC=O`, which “odorant receptor agonist call” value is on record?
A: inactive

Q: How did the “odorant receptor agonist call” value turn out when `O=C1CCCCCCCCCCCCCCO1` was run?
A: inactive

Q: `CC=Cc1ccc(O)c(OC)c1` was tested. Which “odorant receptor agonist call” value did it give?
A: inactive

Q: With `C=CCSCC=C` as the molecule, how does the “odorant receptor agonist call” value read?
A: inactive

Q: `CCCCCCCCOC(C)=O` was tested. Which “odorant receptor agonist call” value did it give?
A: inactive

Q: How did the “odorant receptor agonist call” value turn out when `O=CCc1ccccc1` was run?
A: inactive

Q: For `CC12CCC(CC1)C(C)(C)O2`, which “odorant receptor agonist call” value is on record?
A: inactive

Q: `C=CCc1ccc(OC)c(OC)c1` was tested. Which “odorant receptor agonist call” value did it give?
A: inactive

What follows are molecules tested on T2, OR7D2. Details: stereoisomer not certain.
T2 sequence (whole entry): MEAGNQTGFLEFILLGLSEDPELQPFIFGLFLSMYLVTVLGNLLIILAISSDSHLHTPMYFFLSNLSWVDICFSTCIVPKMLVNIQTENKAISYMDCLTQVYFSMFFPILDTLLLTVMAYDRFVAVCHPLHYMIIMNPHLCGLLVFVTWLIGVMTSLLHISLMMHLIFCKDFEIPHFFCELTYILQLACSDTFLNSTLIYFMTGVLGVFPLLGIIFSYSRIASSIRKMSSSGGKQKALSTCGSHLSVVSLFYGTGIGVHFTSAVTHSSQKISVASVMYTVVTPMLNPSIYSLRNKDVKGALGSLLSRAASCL
Method in brief: as §1

Q: For `CCCCCCCOC(C)=O`, which “odorant receptor agonist call” value is on record?
A: inactive

Q: Which “odorant receptor agonist call” value does the source give for `O=C1CCCCC1` here?
A: inactive

Q: How did the “odorant receptor agonist call” value turn out when `CC(=O)c1ccccc1` was run?
A: inactive

Q: `COC(=O)c1ccccc1O` was tested. Which “odorant receptor agonist call” value did it give?
A: inactive

Q: With `O=C1CCCCCCCCCCCC(=O)OCCO1` as the molecule, how does the “odorant receptor agonist call” value read?
A: inactive

Q: With `c1cnccn1` as the molecule, how does the “odorant receptor agonist call” value read?
A: inactive

Q: `CC1=NC(C)SC1C` (stereo not drawn) was tested. Which “odorant receptor agonist call” value did it give?
A: inactive

Q: Which “odorant receptor agonist call” value does the source give for `CC1CCC(C(C)C)C(O)C1` (stereo not drawn) here?
A: inactive

Q: Which “odorant receptor agonist call” value does the source give for `CCCCO` here?
A: inactive

Q: With `CC(C)CC(=O)O` as the molecule, how does the “odorant receptor agonist call” value read?
A: inactive

Q: For `c1ccc(Oc2ccccc2)cc1`, which “odorant receptor agonist call” value is on record?
A: inactive

Q: `CC(C)C=O` was tested. Which “odorant receptor agonist call” value did it give?
A: inactive

Q: With `CC(=O)OCC=C(C)CCC=C(C)C` as the molecule, how does the “odorant receptor agonist call” value read?
A: inactive

Q: For `CCCCCC(=O)O`, which “odorant receptor agonist call” value is on record?
A: inactive

Q: For `CCCCCCCC=O`, which “odorant receptor agonist call” value is on record?
A: inactive

Q: `CCCCCCCCCCC=O` was tested. Which “odorant receptor agonist call” value did it give?
A: inactive

Q: Which “odorant receptor agonist call” value does the source give for `O=C1CCCCCCCCCCCCCCO1` here?
A: inactive

Q: Which “odorant receptor agonist call” value does the source give for `CC=Cc1ccc(O)c(OC)c1` here?
A: inactive

Q: Which “odorant receptor agonist call” value does the source give for `C=CCSCC=C` here?
A: inactive

Q: Which “odorant receptor agonist call” value does the source give for `CCCCCCCCOC(C)=O` here?
A: inactive

Q: How did the “odorant receptor agonist call” value turn out when `O=CCc1ccccc1` was run?
A: inactive

Q: With `CC12CCC(CC1)C(C)(C)O2` as the molecule, how does the “odorant receptor agonist call” value read?
A: inactive

Q: For `C=CCc1ccc(OC)c(OC)c1`, which “odorant receptor agonist call” value is on record?
A: inactive

These molecules were tested against T3, OR7D4 (Homo sapiens) (UniProt Q8NG98). Details: stereoisomer not certain.
T3 sequence (whole entry): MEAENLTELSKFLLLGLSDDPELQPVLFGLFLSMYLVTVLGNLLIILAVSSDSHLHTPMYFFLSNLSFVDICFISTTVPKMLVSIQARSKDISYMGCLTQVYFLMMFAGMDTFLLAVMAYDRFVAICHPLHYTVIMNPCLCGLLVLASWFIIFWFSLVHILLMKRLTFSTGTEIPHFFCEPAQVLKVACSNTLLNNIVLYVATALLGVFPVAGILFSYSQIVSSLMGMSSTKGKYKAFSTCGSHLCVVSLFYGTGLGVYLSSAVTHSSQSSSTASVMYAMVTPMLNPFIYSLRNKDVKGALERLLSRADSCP
Method in brief: as §1

Q: With `CCCCCCCCC=O` as the molecule, how does the “odorant receptor agonist call” value read?
A: inactive

Q: How did the “odorant receptor agonist call” value turn out when `CCCCCCCOC(C)=O` was run?
A: inactive

Q: With `O=C1CCCCC1` as the molecule, how does the “odorant receptor agonist call” value read?
A: inactive

Q: How did the “odorant receptor agonist call” value turn out when `C=C(C)C1CC=C(C)C(=O)C1` (stereo not drawn) was run?
A: inactive

Q: With `CC(=O)c1ccccc1` as the molecule, how does the “odorant receptor agonist call” value read?
A: active

Q: Which “odorant receptor agonist call” value does the source give for `COC(=O)c1ccccc1O` here?
A: inactive

Q: How did the “odorant receptor agonist call” value turn out when `O=C1CCCCCCCCCCCC(=O)OCCO1` was run?
A: inactive

Q: For `c1cnccn1`, which “odorant receptor agonist call” value is on record?
A: inactive

Q: How did the “odorant receptor agonist call” value turn out when `CC1=NC(C)SC1C` (stereo not drawn) was run?
A: inactive

Q: With `CC1CCC(C(C)C)C(O)C1` (stereo not drawn) as the molecule, how does the “odorant receptor agonist call” value read?
A: inactive

Q: With `CCCCO` as the molecule, how does the “odorant receptor agonist call” value read?
A: inactive

Q: For `CC(C)CC(=O)O`, which “odorant receptor agonist call” value is on record?
A: inactive

Q: How did the “odorant receptor agonist call” value turn out when `c1ccc(Oc2ccccc2)cc1` was run?
A: inactive

Q: How did the “odorant receptor agonist call” value turn out when `CC(C)C=O` was run?
A: inactive

Q: `CC(=O)OCC=C(C)CCC=C(C)C` was tested. Which “odorant receptor agonist call” value did it give?
A: inactive

Q: How did the “odorant receptor agonist call” value turn out when `CCCCCC(=O)O` was run?
A: inactive

Q: With `CCCCCCCC=O` as the molecule, how does the “odorant receptor agonist call” value read?
A: inactive

Q: `CCCCCCCCCCC=O` was tested. Which “odorant receptor agonist call” value did it give?
A: inactive

Q: With `O=C1CCCCCCCCCCCCCCO1` as the molecule, how does the “odorant receptor agonist call” value read?
A: inactive

Q: `C=CCc1ccc(O)c(OC)c1` was tested. Which “odorant receptor agonist call” value did it give?
A: inactive

Q: With `CCCCCCC=O` as the molecule, how does the “odorant receptor agonist call” value read?
A: inactive

Q: For `CC=Cc1ccc(O)c(OC)c1`, which “odorant receptor agonist call” value is on record?
A: inactive

Q: How did the “odorant receptor agonist call” value turn out when `C=CCSCC=C` was run?
A: inactive

Q: For `CCCCCCCCOC(C)=O`, which “odorant receptor agonist call” value is on record?
A: inactive

Q: For `O=CCc1ccccc1`, which “odorant receptor agonist call” value is on record?
A: inactive

Q: `CC12CCC(CC1)C(C)(C)O2` was tested. Which “odorant receptor agonist call” value did it give?
A: inactive

Q: Which “odorant receptor agonist call” value does the source give for `C=CCc1ccc(OC)c(OC)c1` here?
A: inactive

— the M2OR odorant receptor database
